PubChem BioAssay AID1259254, NCATS | 2017
Shown is a random part of about 59,000 reagents. About 1,550 of all reagents (2.6%) were called active. 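G2 share is only a proxy for re-replication; each gene was hit by three separate siRNAs, and active genes were retested.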 Not all columns of the deposit are shown. No sequences are given here. Not given: the amount of reagent.

- Assay: 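Gene knock-downs that lead to re-replication, shown by excess G2 DNA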 (primary screen)
- Cell system: human HCT116 colorectal cancer cells
- Reagent: single siRNA against human genes
- Duration: 3 days
- Measurement: 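Imaged Hoechst DNA stain sorts each cell into a cycle phase by DNA amount; per plate, G2 fraction set to 0% for non-targeting and 100% for GMNN siRNA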
- Reading the numbers: G2 robust z-score and G2 cells, % of GMNN control: higher = more G2 cells, more excess DNA replication
- Active means: 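An siRNA counts as active if its G2 robust z-score lies at least 5 MADs above the screen median; here such calls match roughly 38% of GMNN control or more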

Gene	PubChem SID	G2 robust z-score	G2 cells, % of GMNN control	activity call
ZNF365 (zinc finger protein 365)	SID160727893	2.89	23.3	inactive
ZNF365 (zinc finger protein 365)	SID160727894	4.33	33.4	inactive
ZNF365 (zinc finger protein 365)	SID160727895	-0.225	1.38	inactive
TOGARAM1 (TOG array regulator of axonemal microtubules 1)	SID160735485	-0.206	1.52	inactive
TOGARAM1 (TOG array regulator of axonemal microtubules 1)	SID160735486	2.39	19.8	inactive
TOGARAM1 (TOG array regulator of axonemal microtubules 1)	SID160735487	-0.397	0.174	inactive
LPP	SID160776710	0.0786	3.52	inactive
LPP	SID160776712	-0.63	-1.47	inactive
LPP	SID160776713	0.0113	3.05	inactive
ZNF354B (zinc finger protein 354B)	SID160755604	0.151	4.03	inactive
ZNF354B (zinc finger protein 354B)	SID160755605	0.35	5.43	inactive
ZNF354B (zinc finger protein 354B)	SID160755606	2.21	18.5	inactive
GTSE1 (G2 and S-phase expressed 1)	SID160740911	-0.669	-1.74	inactive
GTSE1 (G2 and S-phase expressed 1)	SID160740912	0.529	6.69	inactive
GTSE1 (G2 and S-phase expressed 1)	SID160740913	-0.693	-1.91	inactive
POR (cytochrome p450 oxidoreductase)	SID160714660	-1.07	-4.57	inactive
POR (cytochrome p450 oxidoreductase)	SID160714662	-0.442	-0.145	inactive
POR (cytochrome p450 oxidoreductase)	SID160731451	-1.29	-6.11	inactive
H4C6 (H4 clustered histone 6)	SID160719906	5.72	43.2	active
H4C6 (H4 clustered histone 6)	SID160719907	0.047	3.3	inactive
H4C6 (H4 clustered histone 6)	SID160719908	0.992	9.94	inactive
GNB1L (G protein subunit beta 1 like)	SID160724437	1.54	13.8	inactive
GNB1L (G protein subunit beta 1 like)	SID160741949	0.0523	3.34	inactive
GNB1L (G protein subunit beta 1 like)	SID160741950	-0.163	1.82	inactive
RHOBTB3 (Rho related BTB domain containing 3)	SID160731741	-0.0286	2.77	inactive
RHOBTB3 (Rho related BTB domain containing 3)	SID160731750	0.0458	3.29	inactive
RHOBTB3 (Rho related BTB domain containing 3)	SID160731760	0.0156	3.08	inactive
C5orf58 (chromosome 5 open reading frame 58)	SID160757285	1.76	15.4	inactive
C5orf58 (chromosome 5 open reading frame 58)	SID160757286	-0.386	0.251	inactive
C5orf58 (chromosome 5 open reading frame 58)	SID160757287	0.0686	3.45	inactive
SLC38A1	SID160750769	7.69	57.1	active
SLC38A1	SID160750770	-0.167	1.79	inactive
SLC38A1	SID160750771	1.19	11.3	inactive
GMFB (glia maturation factor beta)	SID160732913	0.0293	3.17	inactive
GMFB (glia maturation factor beta)	SID160771719	0.241	4.66	inactive
GMFB (glia maturation factor beta)	SID160771729	-0.418	0.0297	inactive
SPP2 (secreted phosphoprotein 2)	SID160717275	-0.99	-4	inactive
SPP2 (secreted phosphoprotein 2)	SID160734197	0.306	5.12	inactive
SPP2 (secreted phosphoprotein 2)	SID160734198	-0.288	0.943	inactive
PTDSS1 (phosphatidylserine synthase 1)	SID160771857	-0.0353	2.72	inactive
PTDSS1 (phosphatidylserine synthase 1)	SID160771940	1.26	11.8	inactive
PTDSS1 (phosphatidylserine synthase 1)	SID160772038	3.07	24.6	inactive
CD200R1L (CD200 receptor 1 like)	SID160764810	2.11	17.8	inactive
CD200R1L (CD200 receptor 1 like)	SID160764811	6.66	49.8	active
CD200R1L (CD200 receptor 1 like)	SID160764813	-0.56	-0.975	inactive
GATAD2A (GATA zinc finger domain containing 2A)	SID160731471	4.64	35.6	inactive
GATAD2A (GATA zinc finger domain containing 2A)	SID160742227	0.238	4.64	inactive
GATAD2A (GATA zinc finger domain containing 2A)	SID160742228	-0.969	-3.85	inactive
KRTAP13-4 (keratin associated protein 13-4)	SID160732987	-0.235	1.32	inactive
KRTAP13-4 (keratin associated protein 13-4)	SID160763438	0.934	9.54	inactive
KRTAP13-4 (keratin associated protein 13-4)	SID160763439	0.147	4	inactive
SLC5A12	SID160759744	-0.107	2.22	inactive
SLC5A12	SID160759745	-0.971	-3.86	inactive
SLC5A12	SID160759746	0.86	9.02	inactive
NEU3 (neuraminidase 3)	SID160729300	-0.632	-1.48	inactive
NEU3 (neuraminidase 3)	SID160729301	-0.314	0.757	inactive
NEU3 (neuraminidase 3)	SID160729302	-0.115	2.16	inactive
MRTO4 (MRT4 homolog, ribosome maturation factor)	SID160740196	2.92	23.5	inactive
MRTO4 (MRT4 homolog, ribosome maturation factor)	SID160740197	0.335	5.33	inactive
MRTO4 (MRT4 homolog, ribosome maturation factor)	SID160740198	-0.848	-3	inactive
TF (transferrin)	SID160717923	3.46	27.3	inactive
TF (transferrin)	SID160717924	3.08	24.6	inactive
TF (transferrin)	SID160731827	-0.341	0.568	inactive
IMPACT (impact RWD domain protein)	SID160743647	3.39	26.8	inactive
IMPACT (impact RWD domain protein)	SID160743648	4.29	33.1	inactive
IMPACT (impact RWD domain protein)	SID160743649	1.07	10.5	inactive
ATP2B1-AS1 (ATP2B1 antisense RNA 1)	SID160725073	-1.08	-4.64	inactive
ATP2B1-AS1 (ATP2B1 antisense RNA 1)	SID160725074	-0.721	-2.1	inactive
ATP2B1-AS1 (ATP2B1 antisense RNA 1)	SID160725075	0.333	5.31	inactive

Entries above with an active call (3):
Gene	PubChem SID	G2 robust z-score	G2 cells, % of GMNN control	activity call
H4C6 (H4 clustered histone 6)	SID160719906	5.72	43.2	active
SLC38A1	SID160750769	7.69	57.1	active
CD200R1L (CD200 receptor 1 like)	SID160764811	6.66	49.8	active
